Laboratory results: patent publication US20160115196A1, “SELF-ASSEMBLED MICRO-AND NANOSTRUCTURES” (NORTHWESTERN UNIVERSITY, priority 2013, published 2016)
At least one read-out could not be matched to a standard name with certainty.

Experiment: Macroscopic adhesion of two glass slides and peeling
Type: physicochemical
Experimental: After overnight incubation, 10 μL of each sample were deposited on a glass slide and dried at room temperature. Force measurements of the samples were conducted using a SiO2 colloidal probe (tip velocity 1000 nm/s, compressive force 20 nN). To investigate the glass surface area morphology after peeling, 30 μL of freshly prepared Fmoc-DOPA-DOPA-Lys solutions (12.5 mg/mL, prepared in DMSO or ethanol as described above) were deposited between two microscope glass slides. This construct was incubated overnight at room temperature under 100 mg weight Finally, the upper glass slide was peeled off and the contact area of either slide was imaged using an Ultrasharp AFM probe (NSC21/Ti-Pt, MikroMasch) operated in tapping mode.

Substance: Fmoc-DOPA-DOPA-Lys
- recovery of adhesion after peeling (prepared in DMSO): showed recovery behavior
- recovery of adhesion after peeling (prepared in ethanol): lost its adhesive properties after peel forces were applied
